Measured values: PubChem BioAssay AID493014 (National Center for Advancing Translational Sciences (NCATS), 2011)
The list shows a part of the results. The main result of the screen is listed elsewhere. These columns were measured beside it and carry no call. The list favours compounds with an active or inconclusive main result. The note in brackets gives the kind of curve behind each potency; many fits are weak.

Assay: qHTS Assay to Find Inhibitors of Chronic Active B-Cell Receptor Signaling
Conditions: ABC-DLBCL IkBa-CBG/CBR reporter, luminescence ratio (green luciferase fused to IkBa over red control in TMD8 lymphoma cells), 4 h
Method in brief: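 Doxycycline induced both beetle luciferases in TMD8 lymphoma cells; IKK-driven degradation limits the IkappaBalpha-fused green signal, while red luminescence normalises for cell number and nonspecific effects. Compounds tested up to 46 uM, 4 hrs.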

[1] = measured here: CBR red luminescence, cell number
[2] = measured here: IkBa-CBG green luminescence

Structure (SMILES): CCOC(=O)c1c(NC(=O)c2nn(CC)cc2Br)sc(C)c1C
- AC50 [1]: 8.2 µM [falling, partial curve, poor fit]

Structure (SMILES): Cc1ccc(Cl)cc1Nc1nc(-c2sc(NC(=O)c3ccccc3)nc2C)cs1
- AC50 [1]: 0.282 µM [falling, full curve, poor fit]

Structure (SMILES): O=c1cc(-c2c(O)c3ccccc3n(Cc3ccccc3)c2=O)[nH][nH]1
- AC50 [1]: 5.01 µM [rising, single point]

Structure (SMILES): Cc1ccc(-c2nnn3c2nc(NCCc2ccc(S(N)(=O)=O)cc2)c2ccccc23)cc1
- AC50 [1]: 0.206 µM [falling, full curve, poor fit]

Structure (SMILES): Cc1noc(/C=C/c2ccco2)c1S(=O)(=O)N1CCC(C(=O)Nc2ccc(Cl)cn2)CC1
- AC50 [1]: 8.2 µM [falling, partial curve, poor fit]
- AC50 [2]: 29.1 µM [rising, single point]

Structure (SMILES): COc1cccc(-n2nnnc2S(C)(=O)=O)c1
- AC50 [1]: 4.11 µM [falling, full curve]
- AC50 [2]: 4.61 µM [rising, partial curve, poor fit]

Structure (SMILES): COc1ccc(NC(=O)c2ccccc2Oc2ccccc2)cc1
- AC50 [1]: 1.12 µM [rising, full curve, poor fit]

Structure (SMILES): O=C1C2=C(C(c3ccccc3)=NCCN2)C(c2cccc([N+](=O)[O-])c2)N1c1ccccc1 (centres undefined)
- AC50 [1]: 12.6 µM [falling, single point]

Structure (SMILES): Cc1ccc(C)c(NC(=O)CNS(=O)(=O)c2ccccc2)c1
- AC50 [1]: 0.184 µM [rising, full curve, poor fit]

Structure (SMILES): CCc1ccc2[nH]c(=O)c(CN(CCCN3CCOCC3)C(=O)Nc3ccccc3)cc2c1
- AC50 [1]: 3.66 µM [rising, partial curve, poor fit]

Structure (SMILES): COc1ccc(N(CCC#N)C(=O)/C(C#N)=C\c2cccs2)cc1
- AC50 [1]: 8.91 µM [rising, partial curve, poor fit]

Structure (SMILES): COc1cc2c(cc1OC)CN(C(=O)c1ccc(N3CCCC3)c([N+](=O)[O-])c1)CC2
- AC50 [1]: 2.06 µM [rising, partial curve, poor fit]

Structure (SMILES): CS(=O)(=O)N(CC(=O)N1CCc2ccccc2C1)Cc1ccc(Cl)cc1
- AC50 [1]: 18.4 µM [falling, single point]

Structure (SMILES): CCOC(=O)C1CCCN(S(=O)(=O)c2cc(Br)cc3c2N(C(C)=O)CC3)C1 (centres undefined)
- AC50 [1]: 25.1 µM [rising, partial curve, poor fit]

Structure (SMILES): CCOc1ccccc1NC(=S)N1CCC(NC(=O)c2ccco2)CC1
- AC50 [1]: 0.316 µM [rising, full curve, poor fit]

Structure (SMILES): CNC(=S)N(CCc1c(C)[nH]c2ccc(F)cc12)Cc1ccco1
- AC50 [1]: 35.5 µM [falling, single point]

Structure (SMILES): CN(c1nc(-c2ccccc2)cs1)C1CCS(=O)(=O)C1 (centres undefined)
- AC50 [1]: 14.6 µM [rising, partial curve]

Structure (SMILES): S=C(N/N=C/c1ccco1)NC1CC2CCC1C2 (centres undefined)
- AC50 [1]: 0.708 µM [rising, full curve, poor fit]
- AC50 [2]: 35.5 µM [falling, single point]

Structure (SMILES): CCCC(=O)NC(c1ccc(OC)cc1)c1c(O)ccc2ccccc12 (centres undefined)
- AC50 [1]: 7.94 µM [falling, partial curve]

Structure (SMILES): CCc1nnc(NC(=O)c2cccs2)s1
- AC50 [1]: 23.1 µM [falling, single point]

Structure (SMILES): Cc1cc(-c2nnc(CCC(=O)NCC(C)c3ccccc3)o2)no1 (centres undefined)
- AC50 [2]: 35.5 µM [rising, partial curve, poor fit]

Structure (SMILES): CC(=O)Nc1c(S(=O)(=O)c2ccccc2)c2nc3ccccc3nc2n1Cc1ccccc1
- AC50 [1]: 7.08 µM [falling, partial curve, poor fit]

Structure (SMILES): CCOC(=O)c1cc(C)nc(S(C)(=O)=O)c1C#N
- AC50 [1]: 11.2 µM [falling, partial curve, poor fit]
- AC50 [2]: 11.2 µM [rising, partial curve, poor fit]

Structure (SMILES): CC(=O)CCS(=O)(=O)c1ccc(C)c(C)c1
- AC50 [1]: 23.1 µM [falling, partial curve, poor fit]

Structure (SMILES): CN(C)c1ccc2c(c1)OC(N)=C(C#N)C2c1cccc(F)c1 (centres undefined)
- AC50 [1]: 2.24 µM [rising, full curve, poor fit]
- AC50 [2]: 0.501 µM [falling, full curve]

Structure (SMILES): COc1ccc(OCCN2C(=O)c3ccccc3C2=O)c([N+](=O)[O-])c1
- AC50 [1]: 35.5 µM [rising, partial curve, poor fit]

Structure (SMILES): O=C(NCc1cccnc1)c1cc(Sc2cccc(Cl)c2)nc2ccccc12
- AC50 [1]: 3.66 µM [rising, single point]

Structure (SMILES): Cn1c(=O)c2c(nc(CN3CCN(c4ccccc4)CC3)n2Cc2c(F)cccc2Cl)n(C)c1=O
- AC50 [1]: 2 µM [rising, full curve, poor fit]

Structure (SMILES): COc1ccc(NC(=O)CCS(=O)(=O)c2ccc3c(c2)oc(=O)n3C)cc1OC
- AC50 [1]: 22.4 µM [rising, single point]
